Experimental data: PMC11290964
Results are given in words; binding and its absence hold for the method and conditions named. Binding seen in cells or lysates may run through a third protein. Some results given as binding are weak or reduced against the parent protein; the word gives no strength. Where a sequence is shown, tags or fusion partners need not be part of it.

Chains of the proteins cited; added tags and fusions are not shown.
UniProt P08238: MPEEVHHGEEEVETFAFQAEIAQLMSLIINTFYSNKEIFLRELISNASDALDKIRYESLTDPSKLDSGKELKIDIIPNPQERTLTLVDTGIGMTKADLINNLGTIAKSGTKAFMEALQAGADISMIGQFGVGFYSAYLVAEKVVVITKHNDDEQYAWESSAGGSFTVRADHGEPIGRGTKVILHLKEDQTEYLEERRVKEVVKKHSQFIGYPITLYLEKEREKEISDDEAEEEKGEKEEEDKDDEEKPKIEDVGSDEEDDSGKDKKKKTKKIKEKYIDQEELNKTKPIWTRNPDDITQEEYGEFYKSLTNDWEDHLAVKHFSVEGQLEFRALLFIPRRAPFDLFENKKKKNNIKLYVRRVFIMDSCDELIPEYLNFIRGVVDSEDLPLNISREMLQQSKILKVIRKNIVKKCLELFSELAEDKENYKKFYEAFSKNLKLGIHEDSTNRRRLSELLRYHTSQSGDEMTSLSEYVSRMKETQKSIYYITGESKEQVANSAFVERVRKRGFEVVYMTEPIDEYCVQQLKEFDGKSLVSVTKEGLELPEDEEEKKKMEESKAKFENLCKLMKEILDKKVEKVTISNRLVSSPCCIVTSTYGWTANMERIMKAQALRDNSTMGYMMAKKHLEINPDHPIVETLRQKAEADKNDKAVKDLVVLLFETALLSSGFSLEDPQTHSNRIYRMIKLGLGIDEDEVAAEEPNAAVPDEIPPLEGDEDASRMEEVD
UniProt P51114: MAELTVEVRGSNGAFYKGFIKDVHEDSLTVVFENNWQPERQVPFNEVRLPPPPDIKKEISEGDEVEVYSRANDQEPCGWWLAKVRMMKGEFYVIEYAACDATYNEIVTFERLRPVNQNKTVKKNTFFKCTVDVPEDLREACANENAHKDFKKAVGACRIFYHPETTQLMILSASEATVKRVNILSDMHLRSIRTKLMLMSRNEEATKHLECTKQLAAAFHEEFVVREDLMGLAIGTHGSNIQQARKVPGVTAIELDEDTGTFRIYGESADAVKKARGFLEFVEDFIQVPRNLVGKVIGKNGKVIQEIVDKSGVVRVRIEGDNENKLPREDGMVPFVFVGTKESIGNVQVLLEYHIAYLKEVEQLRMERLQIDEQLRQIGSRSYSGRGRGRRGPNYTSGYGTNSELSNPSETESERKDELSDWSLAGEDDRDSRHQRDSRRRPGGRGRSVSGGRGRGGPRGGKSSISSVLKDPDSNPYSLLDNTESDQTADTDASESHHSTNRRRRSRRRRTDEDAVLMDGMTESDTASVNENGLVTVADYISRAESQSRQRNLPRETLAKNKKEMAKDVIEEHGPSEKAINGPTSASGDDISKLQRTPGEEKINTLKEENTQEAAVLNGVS
UniProt P09874: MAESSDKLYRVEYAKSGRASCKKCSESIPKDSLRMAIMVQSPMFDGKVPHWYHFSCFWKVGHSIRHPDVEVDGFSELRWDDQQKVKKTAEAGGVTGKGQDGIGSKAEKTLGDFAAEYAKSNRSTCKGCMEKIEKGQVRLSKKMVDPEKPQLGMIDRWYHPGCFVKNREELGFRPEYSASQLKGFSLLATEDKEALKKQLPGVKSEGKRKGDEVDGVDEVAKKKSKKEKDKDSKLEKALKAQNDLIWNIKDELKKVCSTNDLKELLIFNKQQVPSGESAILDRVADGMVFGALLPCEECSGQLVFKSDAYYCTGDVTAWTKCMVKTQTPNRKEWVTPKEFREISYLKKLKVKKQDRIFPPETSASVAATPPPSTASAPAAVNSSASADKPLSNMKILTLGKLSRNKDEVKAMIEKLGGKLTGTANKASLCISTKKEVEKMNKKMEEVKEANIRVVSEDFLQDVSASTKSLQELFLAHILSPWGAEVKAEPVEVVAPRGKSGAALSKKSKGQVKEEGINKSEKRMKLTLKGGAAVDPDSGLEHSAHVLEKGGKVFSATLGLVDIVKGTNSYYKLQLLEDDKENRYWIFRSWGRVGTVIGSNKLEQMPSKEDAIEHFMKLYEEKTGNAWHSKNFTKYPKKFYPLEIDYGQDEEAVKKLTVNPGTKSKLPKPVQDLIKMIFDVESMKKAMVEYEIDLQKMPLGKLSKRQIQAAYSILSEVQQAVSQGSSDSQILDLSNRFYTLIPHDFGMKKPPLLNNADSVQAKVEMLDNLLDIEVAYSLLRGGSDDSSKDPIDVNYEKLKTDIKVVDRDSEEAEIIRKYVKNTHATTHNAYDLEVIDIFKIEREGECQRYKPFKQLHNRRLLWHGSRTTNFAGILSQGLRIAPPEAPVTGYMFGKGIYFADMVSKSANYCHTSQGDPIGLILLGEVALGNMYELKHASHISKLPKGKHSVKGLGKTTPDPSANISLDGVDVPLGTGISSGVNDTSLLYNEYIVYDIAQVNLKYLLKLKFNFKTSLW

Target: T1, FLAG-LIN28B (UniProt Q6ZN17)
T1 sequence: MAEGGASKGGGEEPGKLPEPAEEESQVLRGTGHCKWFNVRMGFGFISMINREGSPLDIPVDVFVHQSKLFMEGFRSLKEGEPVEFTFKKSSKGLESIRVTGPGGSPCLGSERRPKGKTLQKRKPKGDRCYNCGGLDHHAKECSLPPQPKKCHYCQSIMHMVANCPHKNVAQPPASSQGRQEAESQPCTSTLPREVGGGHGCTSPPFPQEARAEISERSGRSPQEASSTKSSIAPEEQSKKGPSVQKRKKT
Test: co-IP; FLAG-LIN28B transfected into HEK-293T; Pierce RIPA lysate; anti-FLAG M2 agarose beads overnight at 4°C; wash buffer with 200 mM NaCl; Western blot of target proteins

HSP90AB1 (from UniProt P08238 1-724) was tested, and the binding was “binds”.

With FXR1 (from UniProt P51114 1-621) the binding was “binds”.

In the case of PARP1 (from UniProt P09874 1-1014), the binding is reported as “binds”.

B1: NUFIP2 (protein, UniProt Q7Z417 1-695)
chain: MEEKPGQPQPQHHHSHHHPHHHPQQQQQQPHHHHHYYFYNHSHNHHHHHHHQQPHQYLQHGAEGSPKAQPKPLKHEQKHTLQQHQETPKKKTGYGELNGNAGEREISLKNLSSDEATNPISRVLNGNQQVVDTSLKQTVKANTFGKAGIKTKNFIQKNSMDKKNGKSYENKSGENQSVDKSDTIPIPNGVVTNNSGYITNGYMGKGADNDGSGSESGYTTPKKRKARRNSAKGCENLNIVQDKIMQQETSVPTLKQGLETFKPDYSEQKGNRVDGSKPIWKYETGPGGTSRGKPAVGDMLRKSSDSKPGVSSKKFDDRPKGKHASAVASKEDSWTLFKPPPVFPVDNSSAKIVPKISYASKVKENLNKTIQNSSVSPTSSSSSSSSTGETQTQSSSRLSQVPMSALKSVTSANFSNGPVLAGTDGNVYPPGGQPLLTTAANTLTPISSGTDSVLQDMSLTSAAVEQIKTSLFIYPSNMQTMLLSTAQVDLPSQTDQQNLGDIFQNQWGLSFINEPSAGPETVTGKSSEHKVMEVTFQGEYPATLVSQGAEIIPSGTEHPVFPKAYELEKRTSPQVLGSILKSGTTSESGALSLEPSHIGDLQKADTSSQGALVFLSKDYEIESQNPLASPTNTLLGSAKEQRYQRGLERNDSWGSFDLRAAIVYHTKEMESIWNLQKQDPKRIITYNEAMDSPDQ
B1 was tested, and the binding was “binds”.

B2: HNRNPM (protein, UniProt P52272 1-730)
chain: MAAGVEAAAEVAATEIKMEEESGAPGVPSGNGAPGPKGEGERPAQNEKRKEKNIKRGGNRFEPYANPTKRYRAFITNIPFDVKWQSLKDLVKEKVGEVTYVELLMDAEGKSRGCAVVEFKMEESMKKAAEVLNKHSLSGRPLKVKEDPDGEHARRAMQKVMATTGGMGMGPGGPGMITIPPSILNNPNIPNEIIHALQAGRLGSTVFVANLDYKVGWKKLKEVFSMAGVVVRADILEDKDGKSRGIGTVTFEQSIEAVQAISMFNGQLLFDRPMHVKMDERALPKGDFFPPERPQQLPHGLGGIGMGLGPGGQPIDANHLNKGIGMGNIGPAGMGMEGIGFGINKMGGMEGPFGGGMENMGRFGSGMNMGRINEILSNALKRGEIIAKQGGGGGGGSVPGIERMGPGIDRLGGAGMERMGAGLGHGMDRVGSEIERMGLVMDRMGSVERMGSGIERMGPLGLDHMASSIERMGQTMERIGSGVERMGAGMGFGLERMAAPIDRVGQTIERMGSGVERMGPAIERMGLSMERMVPAGMGAGLERMGPVMDRMATGLERMGANNLERMGLERMGANSLERMGLERMGANSLERMGPAMGPALGAGIERMGLAMGGGGGASFDRAIEMERGNFGGSFAGSFGGAGGHAPGVARKACQIFVRNLPFDFTWKMLKDKFNECGHVLYADIKMENGKSKGCGVVKFESPEVAERACRMMNGMKLSGREIDVRIDRNA
With B2 the binding was “binds”.

B3: interleukin enhancer-binding factor 3 (protein, UniProt Q12906 1-894)
chain: MRPMRIFVNDDRHVMAKHSSVYPTQEELEAVQNMVSHTERALKAVSDWIDEQEKGSSEQAESDNMDVPPEDDSKEGAGEQKTEHMTRTLRGVMRVGLVAKGLLLKGDLDLELVLLCKEKPTTALLDKVADNLAIQLAAVTEDKYEILQSVDDAAIVIKNTKEPPLSLTIHLTSPVVREEMEKVLAGETLSVNDPPDVLDRQKCLAALASLRHAKWFQARANGLKSCVIVIRVLRDLCTRVPTWGPLRGWPLELLCEKSIGTANRPMGAGEALRRVLECLASGIVMPDGSGIYDPCEKEATDAIGHLDRQQREDITQSAQHALRLAAFGQLHKVLGMDPLPSKMPKKPKNENPVDYTVQIPPSTTYAITPMKRPMEEDGEEKSPSKKKKKIQKKEEKAEPPQAMNALMRLNQLKPGLQYKLVSQTGPVHAPIFTMSVEVDGNSFEASGPSKKTAKLHVAVKVLQDMGLPTGAEGRDSSKGEDSAEETEAKPAVVAPAPVVEAVSTPSAAFPSDATAEQGPILTKHGKNPVMELNEKRRGLKYELISETGGSHDKRFVMEVEVDGQKFQGAGSNKKVAKAYAALAALEKLFPDTPLALDANKKKRAPVPVRGGPKFAAKPHNPGFGMGGPMHNEVPPPPNLRGRGRGGSIRGRGRGRGFGGANHGGYMNAGAGYGSYGYGGNSATAGYSQFYSNGGHSGNASGGGGGGGGGSSGYGSYYQGDNYNSPVPPKHAGKKQPHGGQQKPSYGSGYQSHQGQQQSYNQSPYSNYGPPQGKQKGYNHGQGSYSYSNSYNSPGGGGGSDYNYESKFNYSGSGGRSGGNSYGSGGASYNPGSHGGYGGGSGGGSSYQGKQGGYSQSNYNSPGSGQNYSGPPSSYQSSQGGYGRNADHSMNYQYR
In the case of B3, the binding is reported as “binds”.
